Reference: publication PMC10943805
These are yes or no findings as the source states them, for the method shown. In cells and extracts the contact can be indirect. Some results given as binding are weak or reduced against the parent protein; the word gives no strength.

The chains behind the UniProt entries cited, without tags or fusion partners.
UniProt Q2EJA0: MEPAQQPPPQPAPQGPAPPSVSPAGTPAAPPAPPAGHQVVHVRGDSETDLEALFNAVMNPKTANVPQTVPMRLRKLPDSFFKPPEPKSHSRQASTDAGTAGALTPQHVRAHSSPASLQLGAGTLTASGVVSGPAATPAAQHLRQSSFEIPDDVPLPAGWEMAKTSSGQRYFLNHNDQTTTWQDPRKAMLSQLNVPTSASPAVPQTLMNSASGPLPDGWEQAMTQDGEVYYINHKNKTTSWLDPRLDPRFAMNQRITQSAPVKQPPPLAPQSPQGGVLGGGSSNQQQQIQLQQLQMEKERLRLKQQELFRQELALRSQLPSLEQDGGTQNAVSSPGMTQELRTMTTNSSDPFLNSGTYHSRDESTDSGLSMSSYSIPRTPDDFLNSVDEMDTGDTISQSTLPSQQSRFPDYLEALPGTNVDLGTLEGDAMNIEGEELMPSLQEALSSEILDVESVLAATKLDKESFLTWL

Target: Yes-associated protein (YAP) (rat (endogenous in primary rat chondrocytes)) (UniProt Q2EJA0)
Assay: co-IP; lysate of primary rat chondrocytes (control or treated with IL-1β for 24 h; in Fig. 7I also after LIPUS) in IP lysis buffer with protease inhibitors; pre-cleared with Protein A+G magnetic beads; anti-YAP antibody overnight at 4 °C; western blot of the precipitate

binding: binds
Substance: P62 (from UniProt O08623 1-439)
